Laboratory results from paper PMC9389594.
Where a chain is given by its changes, count along the chain named. No constants are given. Whether binding was seen depends on the method and setting. Binding seen in cells or lysates may run through a third protein. For some assays here: A result given as binding can be weak or reduced; the word gives no strength. Tags and fused reporters may be left off the sequences shown.

Legend:
[1] = biological target: T1, 6xHis-tagged FKBP4-K354A mutant (UniProt Q02790); experiment: co-IP; immunoprecipitation of 6xHis-tagged FKBP4 or FKBP4-K354A with anti-6xHis-tag antibody from transduced HCT116 cells treated with siFKBP4_3'UTR; Western blot
T1 sequence: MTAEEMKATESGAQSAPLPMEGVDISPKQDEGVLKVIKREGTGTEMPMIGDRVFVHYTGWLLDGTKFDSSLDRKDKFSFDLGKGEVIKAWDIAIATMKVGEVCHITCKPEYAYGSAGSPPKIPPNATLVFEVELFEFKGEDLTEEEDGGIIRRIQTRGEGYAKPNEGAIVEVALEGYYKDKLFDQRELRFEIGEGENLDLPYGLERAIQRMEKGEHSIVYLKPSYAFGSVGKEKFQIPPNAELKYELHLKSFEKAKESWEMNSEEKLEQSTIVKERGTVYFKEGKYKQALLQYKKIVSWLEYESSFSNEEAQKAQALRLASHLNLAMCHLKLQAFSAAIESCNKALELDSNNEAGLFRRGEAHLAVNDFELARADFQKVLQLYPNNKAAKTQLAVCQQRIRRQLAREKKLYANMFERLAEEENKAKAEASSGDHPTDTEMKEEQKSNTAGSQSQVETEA

[2] = biological target: T2, 6xHis-tagged FKBP4 (UniProt Q02790); experiment: as above
T2 sequence: T1 sequence with A354K

HSP70 (human (endogenous in HCT116))
binding [1]: no binding
binding [2]: binds
